Data published in patent US20150147318A1.
Results are given in words; binding and its absence hold for the method and conditions named. Some results given as binding are weak or reduced against the parent protein; the word gives no strength.

Target: recombinant canine Nerve Growth Factor (Canis lupus familiaris NGF) (canine (Canis lupus familiaris))
Test: SPR, binding to canine NGF

B1: QC23LC (antibody, V domains shown)
VH: EVQLVESGGDLARPGGSLKLSCVVSGFSLIGYDINWVRQAPGKGLQWVTMIWGDGTTDYNSALKSRFTVSRDNAMNTVYLQMNSLRVEDTAVYYCARGGYYYGTSYYFDYWGQGTLVTVSS
VL: DIVMTQTPLSLSVSPGEPASISCRASQDISNHLNWFRQKPDGTVKLLIYYISRFHSGVPSRFSGSGSGTDFTLRISRVEADDAGVYYCQQSKTLPYTFGQGTKLEIK
B1 was tested, and the binding was “binds”.
